Some entries share one result that the patent states for a list of compounds. At least one structure is not confirmed: it was looked up by name or label, or the drawing left a doubt.
Test system: A2780 ovarian cancer cell line
Assay: Cytotoxicity against A2780 ovarian cancer cell line

## CC(=O)O[C@H]1C(=O)[C@@]2(C)[C@@H]3[C@H](OC(=O)c4ccccc4)[C@]4(O)C[C@H](OC(=O)[C@H](O)[C@@H](NC(=O)c5ccccc5)c5ccccc5C/C=C\C(=O)O[C@]35CO[C@@H]5C[C@@H]2O)C(C)=C1C4(C)C [Compound 13a]
Relative to Taxol
  cytotoxicities exceed those of Taxol by a factor: up to 20

## CC(=O)O[C@H]1C(=O)[C@@]2(C)[C@@H]3[C@H](OC(=O)c4ccccc4)[C@]4(O)C[C@H](OC(=O)[C@H](O)[C@@H](NC(=O)c5ccccc5)c5cccc(c5)/C=C\CCC(=O)O[C@]35CO[C@@H]5C[C@@H]2O)C(C)=C1C4(C)C [Compound 15f]
A2780, relative to PTX
  cytotoxicity/activity, fold less than PTX: 10-30 fold
